Source: PMC6435041
Results are given in words; binding and its absence hold for the method and conditions named. Binding seen in cells or lysates may run through a third protein. Some results given as binding are weak or reduced against the parent protein; the word gives no strength. Tags and fused reporters may be left off the sequences shown.

Sequences of proteins named here, by UniProt entry; tags and fusion partners are left off. A change or cut given only in a name is not applied to a line headed by its entry. A line that says so, or that is headed by a name, gives the form on record, which may keep a tag or linker.
UniProt Q16637: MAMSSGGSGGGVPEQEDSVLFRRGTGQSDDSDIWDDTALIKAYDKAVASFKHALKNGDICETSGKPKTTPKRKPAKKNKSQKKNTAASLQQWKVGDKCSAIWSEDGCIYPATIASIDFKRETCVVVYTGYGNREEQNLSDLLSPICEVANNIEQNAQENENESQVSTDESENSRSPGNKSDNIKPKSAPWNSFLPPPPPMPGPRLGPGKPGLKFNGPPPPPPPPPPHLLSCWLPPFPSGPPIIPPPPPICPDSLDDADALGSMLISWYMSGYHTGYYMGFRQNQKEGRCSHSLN
Myc-SMN2a (SMN-Δ7, exon 7-deleted form of survival motor neuron protein) (Q16637, form named): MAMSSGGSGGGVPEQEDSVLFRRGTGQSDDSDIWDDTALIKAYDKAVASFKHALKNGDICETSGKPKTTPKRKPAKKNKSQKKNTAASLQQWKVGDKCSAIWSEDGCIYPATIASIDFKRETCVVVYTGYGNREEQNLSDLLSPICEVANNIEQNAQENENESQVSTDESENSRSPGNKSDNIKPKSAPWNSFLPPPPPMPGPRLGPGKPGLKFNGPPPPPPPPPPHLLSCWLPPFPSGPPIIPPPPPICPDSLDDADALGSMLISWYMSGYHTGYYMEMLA

What was measured:
[1] = target: Myc-SMN2d (SMN-FL, full-length survival motor neuron protein) (human) (UniProt Q16637); test: co-IP; HEK293 cells co-transfected with 1 μg protease plasmid, 1 μg pLVX-Tight-Myc-SMN2a/d and 1 μg EF1α-rtTA plasmid; which partner was precipitated is not told for this experiment
[2] = target: Myc-SMN2a (SMN-Δ7, exon 7-deleted form of survival motor neuron protein) (human) (UniProt Q16637); test: as above

B1: HA-tagged CAPN7 (enzyme, UniProt Q9Y6W3 1-813)
chain: MDATALERDAVQFARLAVQRDHEGRYSEAVFYYKEAAQALIYAEMAGSSLENIQEKITEYLERVQALHSAVQSKSADPLKSKHQLDLERAHFLVTQAFDEDEKENVEDAIELYTEAVDLCLKTSYETADKVLQNKLKQLARQALDRAEALSEPLTKPVGKISSTSVKPKPPPVRAHFPLGANPFLERPQSFISPQSCDAQGQRYTAEEIEVLRTTSKINGIEYVPFMNVDLRERFAYPMPFCDRWGKLPLSPKQKTTFSKWVRPEDLTNNPTMIYTVSSFSIKQTIVSDCSFVASLAISAAYERRFNKKLITGIIYPQNKDGEPEYNPCGKYMVKLHLNGVPRKVIIDDQLPVDHKGELLCSYSNNKSELWVSLIEKAYMKVMGGYDFPGSNSNIDLHALTGWIPERIAMHSDSQTFSKDNSFRMLYQRFHKGDVLITASTGMMTEAEGEKWGLVPTHAYAVLDIREFKGLRFIQLKNPWSHLRWKGRYSENDVKNWTPELQKYLNFDPRTAQKIDNGIFWISWDDLCQYYDVIYLSWNPGLFKESTCIHSTWDAKQGPVKDAYSLANNPQYKLEVQCPQGGAAVWVLLSRHITDKDDFANNREFITMVVYKTDGKKVYYPADPPPYIDGIRINSPHYLTKIKLTTPGTHTFTLVVSQYEKQNTIHYTVRVYSACSFTFSKIPSPYTLSKRINGKWSGQSAGGCGNFQETHKNNPIYQFHIEKTGPLLIELRGPRQYSVGFEVVTVSTLGDPGPHGFLRKSSGDYRCGFCYLELENIPSGIFNIIPSTFLPKQEGPFFLDFNSIIPIKITQLQ
Question: For B1, which binding [1] is on record?
Answer: Its binding is “binds”.

Question: What about the binding [2] of the same binder?
Answer: The binding was “binds”.
